# Experimental data published in US10513547B2, “Peptides and combination of peptides and scaffolds thereof for use in immunotherapy against colorectal carcinoma (CRC) and other cancers” (Immatics Biotechnologies GmbH, priority 2015, dated 2019).
# Test system: source genes of the peptides in CRC and normal tissues
# Test: mRNA expression profiling of source genes encoding the peptides (Affymetrix microarrays)
# Design: species or system human; key: very highly over-expressed in tumors compared to a panel of normal tissues (+++); highly over-expressed in tumors compared to a panel of normal tissues (++); over-expressed in tumors compared to a panel of normal tissues (+)
# Conditions: over-expression in tumors compared to a panel of normal tissues
row,Substance,Gene Expression (expression score of source gene)
1,215: peptide found in CENPE (gene looked up) (KLQEKIQEL; listed as Homo sapiens) [compound 215],+
2,147: peptide found in KDM5C (gene looked up) (TLTELRAFL; listed as Homo sapiens) [compound 147],+
3,29: peptide found in AP3D1 (gene looked up) (QMLDVAIRV; listed as Homo sapiens) [compound 29],+
4,77: peptide found in DDX5 (gene looked up) (SLLKRDFGA; listed as Homo sapiens) [compound 77],+
5,192: peptide found in MMP12 (gene looked up) (KIQEMQHFL; listed as Homo sapiens) [compound 192],++
6,241: peptide found in CCNB1 (gene looked up) (ILIDWLVQV; listed as Homo sapiens) [compound 241],+++
7,17: peptide found in SLC12A2 (gene looked up) (ALAAARVEL; listed as Homo sapiens) [compound 17],+++
8,47: peptide found in ERBB3 (gene looked up) (KLYERCEVV; listed as Homo sapiens) [compound 47],+
9,68: peptide found in PTPRO (gene looked up) (SILQFVHMV; listed as Homo sapiens) [compound 68],+
10,124: peptide found in AURKB (gene looked up) (RVLPPSALQSV; listed as Homo sapiens) [compound 124],++
11,112: peptide found in GALNT7 (gene looked up) (KLGQVLIYL; listed as Homo sapiens) [compound 112],++
12,123: peptide found in RRM1 (gene looked up) (KTLERSYLL; listed as Homo sapiens) [compound 123],+++
13,81: peptide found in TGIF1 (gene looked up) (ALLSQQTHL; listed as Homo sapiens) [compound 81],+
14,129: peptide found in CNOT1 (gene looked up) (VLIDVLKEL; listed as Homo sapiens) [compound 129],+

# Test system: HLA molecules from shock-frozen tissue samples (CRC, other tumors, normal tissues)
# Test: Identification and label-free relative LC-MS quantitation of HLA-presented tumor associated peptides (presentation profiles, XPRESIDENT)
# Design: species or system human; key to Peptide Presentation (presentation score): very highly over-presented on tumors compared to a panel of normal tissues (+++); highly over-presented on tumors compared to a panel of normal tissues (++); over-presented on tumors compared to a panel of normal tissues (+)
# Conditions: additional tumor types: over-presented on more than 5% of measured tumor samples, or presented on more than 5% with ratio of geometric means tumor vs normal larger than 3
row,Substance,Other relevant organs/diseases
1,215: peptide found in CENPE (gene looked up) (KLQEKIQEL; listed as Homo sapiens) [compound 215],"Lung, Ovary, Esophagus"
2,147: peptide found in KDM5C (gene looked up) (TLTELRAFL; listed as Homo sapiens) [compound 147],Kidney
3,29: peptide found in AP3D1 (gene looked up) (QMLDVAIRV; listed as Homo sapiens) [compound 29],Leukocytes
4,77: peptide found in DDX5 (gene looked up) (SLLKRDFGA; listed as Homo sapiens) [compound 77],"Lung, Breast"
5,192: peptide found in MMP12 (gene looked up) (KIQEMQHFL; listed as Homo sapiens) [compound 192],"Lung, Esophagus"
6,241: peptide found in CCNB1 (gene looked up) (ILIDWLVQV; listed as Homo sapiens) [compound 241],"Lung, Kidney, Brain, Liver, Pancreas, Ovary, Esophagus"
7,47: peptide found in ERBB3 (gene looked up) (KLYERCEVV; listed as Homo sapiens) [compound 47],Liver
8,124: peptide found in AURKB (gene looked up) (RVLPPSALQSV; listed as Homo sapiens) [compound 124],"Lung, Liver, MCC, Melanoma, Ovary, Esophagus"
9,123: peptide found in RRM1 (gene looked up) (KTLERSYLL; listed as Homo sapiens) [compound 123],"Lung, Kidney, Liver, MCC, Ovary, Esophagus"
10,81: peptide found in TGIF1 (gene looked up) (ALLSQQTHL; listed as Homo sapiens) [compound 81],Esophagus
11,129: peptide found in CNOT1 (gene looked up) (VLIDVLKEL; listed as Homo sapiens) [compound 129],"Kidney, Leukocytes"
12,226 (FLVDGSWSV; listed as Homo sapiens) [compound 226],"Lung, Stomach, Pancreas, Breast, Ovary, Esophagus"
13,141 (AVIEHLERL; listed as Homo sapiens) [compound 141],"Lung, Kidney, Esophagus"
14,255 (ALALWIPSL; listed as Homo sapiens) [compound 255],"Lung, Pancreas, Ovary, Esophagus"
15,247 (SLDTLMTYV; listed as Homo sapiens) [compound 247],"Lung, Kidney, Brain, Pancreas, Prostate, Leukocytes, Esophagus"
16,185 (VLYTGVVRV; listed as Homo sapiens) [compound 185],"Leukocytes, Melanoma, Ovary"
17,127 (RLAELTVDEFLA; listed as Homo sapiens) [compound 127],Ovary
18,166 (GLLEARGILGL; listed as Homo sapiens) [compound 166],Liver
19,186 (KMSEKILLL; listed as Homo sapiens) [compound 186],Esophagus
20,126 (TLAKYLMEL; listed as Homo sapiens) [compound 126],"Lung, Brain, Liver, Ovary, Esophagus"
21,44 (SLESKLTSV; listed as Homo sapiens) [compound 44],"Brain, Pancreas, Ovary"
22,214 (SVLEKEIYSI; listed as Homo sapiens) [compound 214],"Lung, Liver, Prostate, Breast, Ovary, Esophagus"

# Same assay, conditions: all samples with detectable presentation, all tumor types
row,Substance,number of cancer tissues with detectable presentation of the peptide
1,SEQ ID NO.: 1 (ALIKQLFEA; listed as Homo sapiens),58

# Same assay, conditions: brain cancers
row,Substance,additionally detected on brain cancers (positive/measured samples)
1,SEQ ID NO.: 138 (KQFEGTVEI; listed as Homo sapiens),1/28
2,SEQ ID NO.: 1 (ALIKQLFEA; listed as Homo sapiens),2/28

# Same assay, conditions: esophageal cancers
row,Substance,additionally detected on esophageal cancers (positive/measured samples)
1,SEQ ID NO.: 138 (KQFEGTVEI; listed as Homo sapiens),1/15
2,SEQ ID NO.: 1 (ALIKQLFEA; listed as Homo sapiens),2/15

# Same assay, conditions: lung cancers
row,Substance,additionally detected on lung cancers (positive/measured samples)
1,SEQ ID NO.: 138 (KQFEGTVEI; listed as Homo sapiens),3/91
2,SEQ ID NO.: 1 (ALIKQLFEA; listed as Homo sapiens),9/99

# Same assay, conditions: ovarian cancers
row,Substance,additionally detected on ovarian cancers (positive/measured samples)
1,SEQ ID NO.: 1 (ALIKQLFEA; listed as Homo sapiens),4/20

# Same assay, conditions: over-presentation on more than 5% of the measured tumor samples, or presentation on more than 5% of the measured tumor samples with ratio of geometric means tumor vs normal tissues larger than 3
row,Substance,Additional Entities (additional tumor types on which the peptide was found)
1,147: peptide found in KDM5C (gene looked up) (TLTELRAFL; listed as Homo sapiens) [compound 147],"CLL, Uterine Cancer, Gallbladder Cancer, Bile Duct Cancer, NHL"
2,29: peptide found in AP3D1 (gene looked up) (QMLDVAIRV; listed as Homo sapiens) [compound 29],BRCA
3,77: peptide found in DDX5 (gene looked up) (SLLKRDFGA; listed as Homo sapiens) [compound 77],"SCLC, Melanoma, Esophageal Cancer, Urinary bladder cancer, Uterine Cancer, NHL"
4,47: peptide found in ERBB3 (gene looked up) (KLYERCEVV; listed as Homo sapiens) [compound 47],Melanoma
5,124: peptide found in AURKB (gene looked up) (RVLPPSALQSV; listed as Homo sapiens) [compound 124],"SCLC, BRCA, Urinary bladder cancer, Uterine Cancer, Gallbladder Cancer, Bile Duct Cancer, AML, NHL, PC"
6,123: peptide found in RRM1 (gene looked up) (KTLERSYLL; listed as Homo sapiens) [compound 123],"SCLC, BRCA, Urinary bladder cancer, Uterine Cancer, AML, NHL, PC"
7,81: peptide found in TGIF1 (gene looked up) (ALLSQQTHL; listed as Homo sapiens) [compound 81],"Urinary bladder cancer, AML"
8,129: peptide found in CNOT1 (gene looked up) (VLIDVLKEL; listed as Homo sapiens) [compound 129],"Melanoma, NHL"
9,185 (VLYTGVVRV; listed as Homo sapiens) [compound 185],"SCLC, BRCA, Esophageal Cancer, AML, NHL"
10,127 (RLAELTVDEFLA; listed as Homo sapiens) [compound 127],"SCLC, Melanoma, Urinary bladder cancer, Uterine Cancer, AML"
11,109 (ALDGDQMEL; listed as Homo sapiens) [compound 109],AML
12,166 (GLLEARGILGL; listed as Homo sapiens) [compound 166],"Urinary bladder cancer, AML, NHL"
13,186 (KMSEKILLL; listed as Homo sapiens) [compound 186],Melanoma
14,32 (KLNTETFGV; listed as Homo sapiens) [compound 32],"GC, BRCA, Esophageal Cancer, AML"
15,126 (TLAKYLMEL; listed as Homo sapiens) [compound 126],"SCLC, BRCA, Melanoma, Urinary bladder cancer, Uterine Cancer, Gallbladder Cancer, Bile Duct Cancer, AML, NHL"
16,44 (SLESKLTSV; listed as Homo sapiens) [compound 44],"Melanoma, Urinary bladder cancer, Uterine Cancer"

# Same assay, conditions: over-presentation on tumors compared to a panel of normal tissues
row,Substance,Peptide Presentation (presentation score)
1,215: peptide found in CENPE (gene looked up) (KLQEKIQEL; listed as Homo sapiens) [compound 215],+++
2,77: peptide found in DDX5 (gene looked up) (SLLKRDFGA; listed as Homo sapiens) [compound 77],+
3,192: peptide found in MMP12 (gene looked up) (KIQEMQHFL; listed as Homo sapiens) [compound 192],+++
4,241: peptide found in CCNB1 (gene looked up) (ILIDWLVQV; listed as Homo sapiens) [compound 241],+
5,17: peptide found in SLC12A2 (gene looked up) (ALAAARVEL; listed as Homo sapiens) [compound 17],+++
6,47: peptide found in ERBB3 (gene looked up) (KLYERCEVV; listed as Homo sapiens) [compound 47],++
7,68: peptide found in PTPRO (gene looked up) (SILQFVHMV; listed as Homo sapiens) [compound 68],++
8,124: peptide found in AURKB (gene looked up) (RVLPPSALQSV; listed as Homo sapiens) [compound 124],++
9,112: peptide found in GALNT7 (gene looked up) (KLGQVLIYL; listed as Homo sapiens) [compound 112],+++
10,123: peptide found in RRM1 (gene looked up) (KTLERSYLL; listed as Homo sapiens) [compound 123],+++
11,81: peptide found in TGIF1 (gene looked up) (ALLSQQTHL; listed as Homo sapiens) [compound 81],++
12,129: peptide found in CNOT1 (gene looked up) (VLIDVLKEL; listed as Homo sapiens) [compound 129],+++
13,226 (FLVDGSWSV; listed as Homo sapiens) [compound 226],+
14,141 (AVIEHLERL; listed as Homo sapiens) [compound 141],+++
15,247 (SLDTLMTYV; listed as Homo sapiens) [compound 247],+
16,185 (VLYTGVVRV; listed as Homo sapiens) [compound 185],+
17,127 (RLAELTVDEFLA; listed as Homo sapiens) [compound 127],+++
18,213 (LLWAPTAQA; listed as Homo sapiens) [compound 213],+++
19,166 (GLLEARGILGL; listed as Homo sapiens) [compound 166],+
20,186 (KMSEKILLL; listed as Homo sapiens) [compound 186],+
21,32 (KLNTETFGV; listed as Homo sapiens) [compound 32],+++
22,126 (TLAKYLMEL; listed as Homo sapiens) [compound 126],+++
23,44 (SLESKLTSV; listed as Homo sapiens) [compound 44],+++
24,214 (SVLEKEIYSI; listed as Homo sapiens) [compound 214],+++

# Same assay, conditions: stomach cancers
row,Substance,additionally detected on stomach cancers (positive/measured samples)
1,SEQ ID NO.: 138 (KQFEGTVEI; listed as Homo sapiens),1/45
2,SEQ ID NO.: 1 (ALIKQLFEA; listed as Homo sapiens),1/45

# For some assays here: For expression read-outs the peptide stands for its source gene, whose mRNA was measured; the gene is not named for every peptide.
